The list shows only some results of the screen, not a fair sample: it is rich in T/C values a quarter to a half above the control, in often repeated tests (any T/C) and in doses without a T/C. Further doses and runs are listed elsewhere. T/C: endpoint of the treated group in % of that of the vehicle group. Some doses have a count of surviving animals in place of a T/C: the source holds a T/C of zero for them, seemingly a mark for toxic or unscored doses. Some doses without a T/C left all or most animals alive at the check, yet need not have been tolerated: the source hardly ever lists a survival T/C far under the control, and the zero likely stands for such cases as well. Counts of survivors are from the toxicity check (mostly the fifth day) where no day follows; animals may have died later. Schedule codes are those of the source, read here as Q, the interval in days (D) or hours (H), X, the number of doses. For survival time, the PubChem record calls one and a half times the control and up active, and a quarter to a half above the control has no call in these data; cut-offs in other NCI protocols can differ. Some T/C values are followed by the survivors on the day toxicity was checked, most often the fifth; where none is given, no animal had died by that day. Some doses were run more than once; the results are listed from low to high.
Tested on: P388 leukemia ip, CD2F1 mice, survival T/C
Experiment: NCI In Vivo Anticancer Drug Screen. Data for tumor model P388 Leukemia (intraperitoneal) in CD2F1 (CDF1) mice
Conditions: T/C endpoint: median survival time, higher T/C = longer survival
[1] = dose: 200.0 mg/kg/injection, schedule: Q01DX009 (ip), vehicle: saline
[2] = dose: 200.0 mg/kg/injection, schedule: Q01DX009 (ip), vehicle: saline with Tween-80
[3] = dose: 100.0 mg/kg/injection, schedule: Q01DX005 (ip), vehicle: saline with Tween-80
[4] = dose: 200.0 mg/kg/injection, schedule: Q01DX005 (ip), vehicle: saline with Tween-80
[5] = dose: 100.0 mg/kg/injection, schedule: Q04DX002 (ip), vehicle: Klucel (hydroxypropylcellulose) (HPC)
[6] = dose: 200.0 mg/kg/injection, schedule: Q04DX002 (ip), vehicle: Klucel (hydroxypropylcellulose) (HPC)
[7] = dose: 100.0 mg/kg/injection, schedule: Q01DX009 (ip), vehicle: saline
[8] = dose: 100.0 mg/kg/injection, schedule: Q01DX009 (ip), vehicle: Klucel (hydroxypropylcellulose) (HPC)
[9] = dose: 100.0 mg/kg/injection, schedule: Q01DX009 (ip), vehicle: saline with Tween-80
[10] = dose: 50.0 mg/kg/injection, schedule: Q01DX009 (ip), vehicle: Klucel (hydroxypropylcellulose) (HPC)

## CC(=O)NC1C=CC(=O)O1 (configuration not stated)
dose: 3.1 mg/kg/injection, schedule: Q01DX010 (ip), vehicle: saline
  T/C: 136 % of control
dose: 4.7 mg/kg/injection, schedule: Q01DX010 (ip), vehicle: saline
  T/C: 145 % of control
dose: 7.0 mg/kg/injection, schedule: Q01DX010 (ip), vehicle: saline
  T/C: 136 % of control

## Cc1ccc(=O)c2ccsc2c1
dose: 400.0 mg/kg/injection, schedule: Q04DX003 (ip), vehicle: Klucel (hydroxypropylcellulose) (HPC)
  survivor count: 0 of 6

## CC(C)(C)c1cc(C(C)(C)C)c2oc(C(=O)O)cc(=O)c2c1
[1]
  survivor count: 0 of 6

## N#Cc1c(NC(=O)Nc2ccc(F)cc2F)sc(=S)c2c1CCCC2
[2]
  survivor count: 0 of 6

## COC(=O)[C@@]12OC[C@]34C([C@@H](O)C1O)[C@@]1(C)CC(=O)C(O)=C(C)C1C[C@H]3OC(=O)[C@H](OC(=O)c1ccc(Cl)cc1)[C@H]42 (some centres not stated)
dose: 32.0 mg/kg/injection, schedule: Q01DX005 (ip), vehicle: DMSO
  survivor count: 3 of 6

## COC1=C(C)C(=O)c2[nH]c(Cl)c(C=O)c2C1=O
dose: 400.0 mg/kg/injection, schedule: Q01DX001 (ip), vehicle: saline with Tween-80
  survivor count: 2 of 6

## CCCC(=O)O.CCCC(=O)O.CCCC(=O)O.CCCC(=O)O.[Rh].[Rh]
dose: 0.5 mg/kg/injection, schedule: Q01DX009 (ip), vehicle: saline + alcohol
  T/C: 125 and 139 % of control [5 of 6 alive]
dose: 1.0 mg/kg/injection, schedule: Q01DX009 (ip), vehicle: saline + alcohol
  survivor count: 5 of 6
dose: 2.0 mg/kg/injection, schedule: Q01DX009 (ip), vehicle: saline + alcohol
  survivor count: 2 of 6
dose: 4.0 mg/kg/injection, schedule: Q01DX009 (ip), vehicle: saline + alcohol
  survivor count: 0 of 6
dose: 62.5 micrograms/kg/injection, schedule: Q01DX009 (ip), vehicle: saline + alcohol
  T/C: 125 % of control
dose: 500.0 micrograms/kg/injection, schedule: Q08HX018 (ip), vehicle: saline + alcohol
  survivor count: 6 of 6
dose: 1000.0 micrograms/kg/injection, schedule: Q01DX009 (ip), vehicle: saline + alcohol
  survivor count: 6 of 6
dose: 1000.0 micrograms/kg/injection, schedule: Q08HX018 (ip), vehicle: saline + alcohol
  survivor count: 0 of 6
dose: 2000.0 micrograms/kg/injection, schedule: Q01DX009 (ip), vehicle: saline + alcohol
  survivor count: 3 of 6

## CN=NN(C)C(C)=O
dose: 50.0 mg/kg/injection, schedule: Q01DX005 (ip), vehicle: saline
  survivor count: 6 of 6
dose: 100.0 mg/kg/injection, schedule: Q01DX005 (ip), vehicle: saline
  survivor count: 0 of 6
dose: 200.0 mg/kg/injection, schedule: Q01DX005 (ip), vehicle: saline
  survivor count: 0 of 6

## C1CC[N-]CC1.CC(=O)Nc1[c-]cccc1.CC(=O)O.[Pd+2]
[3]
  T/C: 129 % of control [5 of 6 alive]
  survivor count: 1 of 6
[4]
  survivor count: 0 of 6

## ClC1=C(Cl)[C@@]2(Cl)[C@H]3[C@H]4C[C@H]([C@@H]5O[C@H]45)[C@H]3[C@@]1(Cl)C2(Cl)Cl
dose: 25.0 mg/kg/injection, schedule: Q04DX003 (ip), vehicle: Klucel (hydroxypropylcellulose) (HPC)
  survivor count: 6 of 6
dose: 50.0 mg/kg/injection, schedule: Q04DX003 (ip), vehicle: Klucel (hydroxypropylcellulose) (HPC)
  survivor count: 2 of 6

## CN1CNC(=O)c2n[nH]nc21
[5]
  survivor count: 0 of 6
[6]
  survivor count: 0 of 6

## BrC[Si](CBr)(c1ccccc1)c1ccccc1
[7]
  survivor count: 6 of 6
[1]
  survivor count: 6 of 6

## CC(NC(=O)C(Cc1ccc(OC(=O)OCc2ccccc2)cc1)NC(=O)OCc1ccccc1)C(=O)OCc1ccccc1 (configuration not stated)
[4]
  survivor count: 5 of 6

## O=S(=O)(O)c1c(O)ccc2nc3ccccc3nc12
[7]
  T/C: 125 % of control
  survivor count: 5 of 6

## CC(=O)NC(Cc1ccc(N(CCCl)CCCl)cc1)C(=O)NC(CC(C)C)C(=O)O (configuration not stated)
dose: 12.6 mg/kg/injection, schedule: Q04DX003 (ip), vehicle: saline with Tween-80
  T/C: 125 % of control
dose: 28.4 mg/kg/injection, schedule: Q04DX003 (ip), vehicle: saline with Tween-80
  T/C: 142 % of control
dose: 40.0 mg/kg/injection, schedule: Q04DX003 (ip), vehicle: water
  T/C: 130 % of control
dose: 144.0 mg/kg/injection, schedule: Q04DX003 (ip), vehicle: saline with Tween-80
  T/C: 127 % of control

## C1=CN2C3=NCCN3C3=NCCN3C2c2ccccc21 (configuration not stated)
[5]
  survivor count: 0 of 6
[6]
  survivor count: 0 of 6
dose: 400.0 mg/kg/injection, schedule: Q04DX002 (ip), vehicle: Klucel (hydroxypropylcellulose) (HPC)
  survivor count: 0 of 6

## Cc1cccc2c(/C=C/c3ccc(N(C)C)cc3)ccnc12
[8]
  survivor count: 6 of 6

## C=Cn1c([N+](=O)[O-])cnc1/C=C/c1ccc(C(=O)OCCN2CCOCC2)cc1
dose: 200.0 mg/kg/injection, schedule: Q04DX002 (ip), vehicle: saline with Tween-80
  survivor count: 6 of 6
dose: 400.0 mg/kg/injection, schedule: Q04DX002 (ip), vehicle: saline with Tween-80
  survivor count: 6 of 6

## O=S(=O)(c1ccccc1)C(SC(=S)Sc1ccccc1)Sc1ccccc1 (configuration not stated)
[9]
  survivor count: 0 of 6
[2]
  survivor count: 0 of 6

## CC(C)=CC[P+](CCCC[P+](CC=C(C)C)(c1ccccc1)c1ccccc1)(c1ccccc1)c1ccccc1
dose: 6.25 mg/kg/injection, schedule: Q04DX003 (ip), vehicle: saline
  survivor count: 0 of 6
dose: 12.5 mg/kg/injection, schedule: Q04DX003 (ip), vehicle: saline
  survivor count: 0 of 6
dose: 25.0 mg/kg/injection, schedule: Q04DX003 (ip), vehicle: saline
  survivor count: 0 of 6
dose: 50.0 mg/kg/injection, schedule: Q04DX003 (ip), vehicle: saline
  survivor count: 0 of 6
dose: 100.0 mg/kg/injection, schedule: Q04DX003 (ip), vehicle: saline
  survivor count: 0 of 6
dose: 200.0 mg/kg/injection, schedule: Q04DX003 (ip), vehicle: saline
  survivor count: 0 of 6
dose: 400.0 mg/kg/injection, schedule: Q04DX003 (ip), vehicle: saline
  survivor count: 0 of 6

## CCOC(=O)c1ccc(NC(=O)Nc2nncs2)cc1
dose: 25.0 mg/kg/injection, schedule: Q01DX009 (ip), vehicle: distilled water + Tween-80
  T/C: 128 % of control
dose: 50.0 mg/kg/injection, schedule: Q01DX009 (ip), vehicle: distilled water + Tween-80
  T/C: 140 % of control
dose: 100.0 mg/kg/injection, schedule: Q01DX009 (ip), vehicle: distilled water + Tween-80
  T/C: 134 % of control

## Nc1nn(-c2ccc(Br)cc2)c2cccc[n+]12
dose: 100.0 mg/kg/injection, schedule: Q01DX009 (ip), vehicle: other
  survivor count: 5 of 6
[9]
  survivor count: 1 of 6
dose: 200.0 mg/kg/injection, schedule: Q01DX009 (ip), vehicle: other
  survivor count: 1 of 6
[2]
  survivor count: 0 of 6
dose: 400.0 mg/kg/injection, schedule: Q01DX009 (ip), vehicle: other
  survivor count: 0 of 6

## C1CCC2OCCOCCOC3CCCCC3OCCOCCOC2C1 (configuration not stated)
dose: 12.5 mg/kg/injection, schedule: Q01DX009 (ip), vehicle: Klucel (hydroxypropylcellulose) (HPC)
  survivor count: 6 of 6
dose: 25.0 mg/kg/injection, schedule: Q01DX009 (ip), vehicle: Klucel (hydroxypropylcellulose) (HPC)
  T/C: 128 % of control
[10]
  T/C: 93 [5 of 6 alive], 118 [4 of 6 alive], 124 % of control [5 of 6 alive]
  survivor count: 4 of 6
[8]
  survivor count: 0 of 6
dose: 200.0 mg/kg/injection, schedule: Q01DX009 (ip), vehicle: Klucel (hydroxypropylcellulose) (HPC)
  survivor count: 0 of 6

## COC1NC(=O)N(C(C)C)C1(C)C (configuration not stated)
[7]
  survivor count: 3 of 6

## CCCCCCOC(=O)C(N)Cc1ccc(N(CCCl)CCCl)cc1 (configuration not stated)
dose: 1.6 mg/kg/injection, schedule: Q03HX008 (ip), vehicle: saline
  T/C: 140 % of control

Reference: PubChem BioAssay AID330 (DTP/NCI, 2004)
